{"source": "patent US20210113484A1", "about": "(NATIONAL UNIVERSITY OF SINGAPORE, published 2021)", "binders": {"B1": {"name": "tES-rLuc (His-tagged AfFtn subunit with truncated C-terminus fused to Renilla luciferase) (other)", "chain": "MASISEKMVEALNRQINAEIYSAYLYLSMASYFDSIGLKGFSNWMRVQWQEELMHAMKMFDFVSERGGRVKLYAVEEPPSEWDSPLAAFEHVYEHEVNVTKRIHELVEMAMQEKDFATYNFLQWYVAEQVEEEASALDIVEKLRLIGEDKRALLFLDKELSLRQTS", "notes": "also called tES-rLuc fusion subunit; not shown: N-terminal His-tag from pBAD/HisB; Renilla luciferase (rLuc), a 36 kDa protein from sea pansy, Renilla reniformis"}}, "target": "AfFtn with truncated C-terminus and E65K, E128K, E131K, D138A, net positive interior [AfFtnΔC(+)] (Archaeoglobus fulgidus)", "assay": "His-tag pull-down followed by SEC", "note": "No constants are given. Whether binding was seen depends on the method and setting. Some entries that bind do so weakly or less than the wild type. Sequences can lack the tags named with a protein."}
{"binder": "B1", "values": [{"measurement": "binding", "result": "binds"}]}
